Results on 61 compounds are retold here after PubChem BioAssay AID2685 (National Center for Advancing Translational Sciences (NCATS), 2010).

This assay can be described thus: qHTS Assay for Lipid Storage Modulators in Drosophila S3 Cells.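 As to cell number change: cells counted by Cell Tracker Red CMTPX staining in the red channel.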 As to conditions: BODIPY lipid droplet fluorescence, 18-24 h; for cell number change: measured here: cell count max response, cells fed with added oleic acid. The method in brief: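 Laser-scanning cytometry quantifies lipid droplet accumulation (500–530 nm total intensity; droplet/cell object ratio) in oleic acid-fed (400 uM added) Drosophila S3 cells treated with a concentration series. 20 uM Triacsin C defined 100% inhibition.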

Where [1] appears, read: measured here: cell number channel AC50, cells fed with added oleic acid.
The mark [2] stands for this setting: measured here: lipid fluorescence (Fed channel) AC50, cells fed with added oleic acid.

Each structure is given as a SMILES string. Some of the results follow. The main result of the screen is listed elsewhere. These columns were measured beside it and carry no call. Compounds called inactive in the main read-out are mostly missing here. Words in brackets tell the shape of the fitted curve; partial curves, single points and poor fits give uncertain potencies.

Take `COc1ccc(/C=N/Nc2ncnc3c2[nH]c2ccccc23)c(OC)c1OC`: the cell number change came out at 70%. The AC50 under setting [1] was 25.9 µM [rising, single point]. The AC50 under setting [2] is 3.26 µM [rising, full curve, poor fit].

`COc1ccc(CCCC(=O)N/N=C/c2cccc(OC)c2O)cc1C`: the cell number change is -2.81%. Moreover, under setting [2], the AC50 is 0.103 µM [falling, full curve, poor fit].

In the case of `O=[N+]([O-])c1cccc(-c2nnc(CNC3CC3)o2)c1`, the AC50 under setting [2] was 0.58 µM [rising, single point].

Consider `COc1cccc(NC(=O)CS(=O)(=O)Cc2nc(-c3ccc(C)cc3)oc2C)c1`, for which the cell number change turned out to be 14.1%.

With `c1ccc(CN(Cc2cccs2)C(c2cccs2)c2nnnn2C2CCCC2)cc1` (stereo not given), the cell number change worked out at 0.0804%. Besides, the half-maximal activity concentration (AC50) under setting [2] was 6.51 µM [rising, single point].

As to `O=C(CCN1C(=O)c2cccc3cccc(c23)C1=O)NCC1CCCO1` (stereo not given), the cell number change came out at 6.27%. The AC50 under setting [2] was 2.06 µM [rising, partial curve, poor fit].

On to `CCOc1ccc(CC2CCC(=O)NC2=O)cc1` (stereo not given), for which the cell number change was -10.7%. Moreover, under setting [2], the AC50 is 4.11 µM [falling, partial curve].

Turning to `Cc1ccc(N(CC(=O)Nc2ccc3c(c2)OCCO3)S(C)(=O)=O)cc1`, the cell number change was -4.88%. Besides, the AC50 under setting [2] is 0.0291 µM [falling, full curve, poor fit].

As for `CNC(=S)NNC(=O)c1ccccc1Br`, the cell number change was -11.4%.

`CCn1nc(NC(=O)c2cccnc2)c2cc3cccc(C)c3nc21`: the cell number change is -4.4%. For the same compound, the AC50 under setting [2] was 0.517 µM [rising, full curve, poor fit].

As to `O=C(N/N=C/c1cccc2ccccc12)c1cccc(F)c1`, the AC50 under setting [2] is 15.8 µM [falling, single point].

Turning to `Cc1cc(=O)oc(C)c1C(=O)Nc1ccc(F)cc1`, the cell number change was -20.1%. Moreover, the AC50 under setting [2] was 0.058 µM [falling, full curve].

Consider `COc1cccc2c1C(=O)CC2NC(=O)C(F)(F)F` (stereo not given), for which the cell number change is -22.9%. For the same compound, the AC50 under setting [2] was 25.9 µM [falling, partial curve].

For the compound `CCCCNC(=S)Nc1ccc(Cl)cc1`, the cell number change amounted to 6.42%. Moreover, the AC50 under setting [2] was 36.6 µM [falling, partial curve, poor fit].

Consider `N#CC1=C(N)S[C@@H](C(=O)c2ccc(F)cc2)[C@@H]1c1cccs1`, for which the cell number change was -24.8%. For the same compound, the AC50 under setting [2] is 29.1 µM [falling, single point].

Turning to `O=S(=O)(c1ccccc1)c1nc(-c2ccco2)oc1N1CCOCC1`, the cell number change turned out to be 26.3%. The AC50 under setting [2] was 4.11 µM [rising, full curve].

Turning to `NC(=O)C1CC(=O)N(Cc2ccc3c(c2)OCO3)C(=Nc2ccccc2)S1` (stereo not given), the cell number change is -16.5%. For the same compound, the AC50 under setting [2] was 2.59 µM [rising, partial curve, poor fit].

As for `CC(C)c1ccc(NC(=O)c2ccc3snnc3c2)cc1`, the cell number change was found to be 25.9%. The AC50 under setting [1] is 2.59 µM [rising, full curve, poor fit].

As to `O=C(/C=C/c1ccccc1Cl)Nc1ccc(-c2nnc3n2CCCCC3)cc1`, the cell number change was -35.5%. In addition, under setting [1], the AC50 is 32.6 µM [falling, single point]. Also, the AC50 under setting [2] is 5.8 µM [rising, single point].

Take `O=C(Nc1ccc2c(c1)C(=O)OC2)c1ccc(C(F)(F)F)cc1`: the cell number change came out at 9.01%. Moreover, the AC50 under setting [2] was 29.1 µM [rising, single point].

For the compound `O=C(NC1CCS(=O)(=O)C1)c1ccc(S(=O)(=O)N2CCCC2)cc1` (stereo not given), the cell number change is -13.9%. In addition, under setting [2], the AC50 is 0.58 µM [rising, single point].

Regarding `COc1cc(CN(C(=O)c2cccs2)C2CCS(=O)(=O)C2)cc(OC)c1OC` (stereo not given), the cell number change amounted to 12.8%. For the same compound, the AC50 under setting [2] was 0.461 µM [falling, full curve].

As for `COc1cc(OC)c(C2=NOC(C(=O)Nc3c(C)nn(CC(=O)N4CCCC4)c3C)C2)cc1Cl` (stereo not given), the cell number change is -1.55%. The AC50 under setting [2] is 1.16 µM [rising, single point].

As for `COc1ccc(-c2c[n+]3c4n2CCCCC4=C(c2ccc(Br)cc2)C3)cc1`, the cell number change was -40.1%. For the same compound, the AC50 under setting [1] is 32.6 µM [falling, single point]. Further, under setting [2], the AC50 was 32.6 µM [falling, partial curve].

As for `NC1=NC(=O)CC(C(=O)Nc2cccc3ccccc23)S1` (stereo not given), the cell number change was -9.49%. For the same compound, under setting [2], the AC50 is 2.06 µM [falling, partial curve, poor fit].

Take `CCC(CO)NCc1ccc(Br)cc1` (stereo not given): the cell number change stood at 123%. Moreover, under setting [1], the AC50 was 29.1 µM [rising, single point]. The AC50 under setting [2] was 29.1 µM [rising, single point].

In the case of `Cc1cccc2c(C(=O)N3CCN(c4ccccn4)CC3)cc(-c3cccc(Br)c3)nc12`, the cell number change was 34.3%. Also, the AC50 under setting [1] is 35.5 µM [rising, single point]. Moreover, the AC50 under setting [2] is 2.51 µM [rising, full curve].

Consider `Clc1ccccc1-c1nnc2sc(-c3cccs3)nn12`, for which the cell number change is -19.7%. The AC50 under setting [2] was 9.2 µM [rising, partial curve].

With `Cc1cccc(C)c1NC(=O)CCCSc1nnc(-c2ccc(F)cc2)n1-c1ccccc1`, the cell number change was determined as 15.7%. For the same compound, the AC50 under setting [2] is 29.1 µM [falling, single point].

Take `Cc1occc1C(=O)NNC(=O)Nc1ccc(F)cc1F`: the cell number change was determined as 25.8%. Besides, under setting [2], the AC50 is 18.4 µM [rising, partial curve].

Turning to `O=C(Nc1ccccc1)c1ccc(CSc2ccccn2)cc1`, the cell number change came out at 8.31%. The AC50 under setting [2] was 0.92 µM [falling, full curve, poor fit].

For the compound `Cn1nccc1C(=O)Nc1sc2c(c1C#N)CCCC2`, the cell number change is -16.2%.

Regarding `O=C(c1cccc(N2C(=O)C3C4C=CC(C4)C3C2=O)c1)N1CCN(c2ccccc2)CC1` (stereo not given), the cell number change is 17.7%. Moreover, under setting [2], the AC50 was 0.82 µM [rising, full curve, poor fit].

For the compound `O=C1c2ccccc2C(=O)N1CCCCSc1nc2ccccc2c(=O)n1CCCN1CCOCC1`, the cell number change worked out at 24.1%. In addition, under setting [1], the AC50 was 3.66 µM [rising, single point]. Moreover, the half-maximal activity concentration (AC50) under setting [2] was 6.51 µM [rising, single point].

As for `CN(c1ccccc1)S(=O)(=O)c1ccc(C(=O)Nc2nccs2)cc1`, the cell number change was -22%. Besides, the AC50 under setting [2] was 25.9 µM [falling, single point].

As for `CC(C)c1ccccc1-n1c(-c2cccnc2)n[nH]c1=S`, the cell number change was -14.8%. Also, the AC50 under setting [1] is 0.651 µM [falling, single point].

On to `CCCc1cc2c(=O)c(-c3cscn3)c(C(=O)OCC)oc2cc1O`, for which, under setting [2], the AC50 was 16.4 µM [rising, partial curve].

Consider `Cc1cc(C(=O)CN2C(=O)c3ccccc3S2(=O)=O)c(C)n1-c1ccccc1`, for which the cell number change is 15.4%. Further, under setting [2], the AC50 was 1.84 µM [rising, partial curve].

As for `CCN(CC(=O)Nc1ccc(NC(C)=O)cc1)C(=O)c1cccc2ccccc12`, the cell number change is 21.8%. The AC50 under setting [2] was 9.2 µM [rising, partial curve, poor fit].

For `COc1ccc(NC(=O)C2OC3OC(C)(C)OC3C3OC(C)(C)OC23)cc1` (stereo not given), the cell number change is -91.7%. Moreover, the AC50 under setting [1] is 29.1 µM [falling, single point]. Also, the AC50 under setting [2] is 3.26 µM [rising, single point].

Turning to `O=C(CCCSc1nc2ccccc2s1)Nc1nccs1`, the cell number change was found to be 9.39%.

As for `Cc1ccc(CNC(=O)CCCn2c(=O)c3ccccc3n(CC(=O)NC3CCCC3)c2=O)cc1`, the AC50 under setting [1] was 2.59 µM [rising, single point].

In the case of `CCOC(=O)N1CCN(C(=S)NC2CCCC2)CC1`, the cell number change turned out to be 32.5%.

As to `Cc1ccccc1-c1nnc(SCC(=O)c2c(N)n(C3CC3)c(=O)[nH]c2=O)o1`, the cell number change was -5.7%. Under setting [2], the AC50 is 3.66 µM [rising, full curve, poor fit].

Turning to `NS(=O)(=O)c1cccc(NC(=O)Nc2ccc(Cl)cc2)c1`, the cell number change is -9.29%.

Regarding `Cc1ccc(-c2ocnc2C(=O)N2CCN(C(=O)c3cccs3)CC2)cc1`, the AC50 under setting [2] is 5.17 µM [rising, partial curve].

In the case of `CCCCC(=O)NC(=S)NNC(=O)CC#N`, the cell number change is 32.7%. In addition, the AC50 under setting [1] is 16.4 µM [rising, single point].

As to `O=C(CCN1CCCCC1=O)NC1CCCN(Cc2ccc(Cl)cc2)C1` (stereo not given), the cell number change was -0.54%. Besides, the AC50 under setting [2] was 29.1 µM [falling, single point].

As for `O=C(Cn1cc(C(F)(F)F)cc(Cl)c1=O)Nc1cccc(S(=O)(=O)N2CCCCC2)c1`, the cell number change was 0.501%. Also, the AC50 under setting [1] was 0.164 µM [falling, full curve, poor fit].

With `COc1ccc(C(=O)N/N=C(/C)c2cccc(NC(=O)c3ccncc3)c2)cc1OC`, the cell number change was determined as 5.1%. The AC50 under setting [2] is 29.1 µM [rising, single point].

As to `COc1ccc(-c2nc3ccc(C)cc3c(=O)o2)cc1OC`, the cell number change was determined as 15.2%. The AC50 under setting [2] is 14.6 µM [falling, single point].

Regarding `Cc1ccc(NC(=O)c2ccc(OC(=O)C(C)Oc3ccc(Cl)cc3C)cc2)cc1` (stereo not given), under setting [2], the AC50 is 6.51 µM [falling, partial curve].

With `CCCN1CCN(C(=O)c2ccc(F)c(S(=O)(=O)N3CCOCC3)c2)CC1`, the cell number change amounted to 6.81%.

For the compound `Cc1cccc(Nc2ccc(S(=O)(=O)N3CCOCC3)cc2[N+](=O)[O-])c1`, the cell number change is -11.4%.

For `Cc1ccccc1-c1ccc(Nc2ccc(C(=O)N3CCOCC3)cc2)nn1`, the AC50 under setting [1] is 6.51 µM [rising, single point].

As for `O=C(O)C1CSC2(c3ccc4c(c3)OCCO4)CCC(=O)N12` (stereo not given), the cell number change is -40.4%. Further, under setting [1], the AC50 was 0.259 µM [falling, full curve, poor fit]. Besides, the AC50 under setting [2] was 4.11 µM [falling, full curve, poor fit].

On to `Cc1oc2ccc(NS(=O)(=O)c3ccc(F)cc3)cc2c1C(=O)O`, for which the cell number change turned out to be 15.1%. The AC50 under setting [1] is 2.31 µM [rising, partial curve, poor fit].

In the case of `CCOC(=O)C1CCN(C(=O)CSc2n[nH]c(=O)[nH]c2=O)CC1`, the cell number change was -89.8%. The AC50 under setting [1] is 6.51 µM [falling, partial curve]. Further, under setting [2], the AC50 was 8.2 µM [falling, partial curve].

Take `CCN1CCCC1CNS(=O)(=O)c1ccc(Cl)c(C(F)(F)F)c1` (stereo not given): under setting [2], the AC50 was 29.1 µM [rising, partial curve, poor fit].

As to `O=C1C2C3C=CC(C3)C2C(=O)N1CNc1ccc(O)cc1` (stereo not given), the cell number change was 4.06%. Further, the AC50 under setting [2] was 1.16 µM [falling, single point].

As to `CNc1nc(C)c(C(=O)OCC(=O)OC)s1`, the cell number change was -14.2%. Further, under setting [2], the AC50 was 0.517 µM [falling, full curve, poor fit].
